Data as given in patent US20090208416A1.
These are yes or no findings as the source states them, for the method shown. Some entries that bind do so weakly or less than the wild type.

Sequences of proteins named here, by UniProt entry; tags and fusion partners are left off. A change or cut given only in a name is not applied to a line headed by its entry. A line that says so, or that is headed by a name, gives the form on record, which may keep a tag or linker.
UniProt Q9MZJ3: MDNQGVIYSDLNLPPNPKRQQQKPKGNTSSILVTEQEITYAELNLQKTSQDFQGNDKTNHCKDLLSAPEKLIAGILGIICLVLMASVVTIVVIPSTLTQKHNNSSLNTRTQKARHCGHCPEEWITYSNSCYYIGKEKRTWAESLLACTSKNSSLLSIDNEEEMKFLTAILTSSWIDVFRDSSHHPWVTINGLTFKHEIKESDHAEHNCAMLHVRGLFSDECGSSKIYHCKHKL
NKG2A on cynomolgus monkey NK cells (Q68VD2, form named): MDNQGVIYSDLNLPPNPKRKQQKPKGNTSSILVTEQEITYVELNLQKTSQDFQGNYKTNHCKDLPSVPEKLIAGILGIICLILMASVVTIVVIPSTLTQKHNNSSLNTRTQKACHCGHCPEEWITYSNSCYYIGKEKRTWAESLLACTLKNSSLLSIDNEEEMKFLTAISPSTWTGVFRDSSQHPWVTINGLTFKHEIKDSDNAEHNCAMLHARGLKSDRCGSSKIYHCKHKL

Experiments:
[1] = biological target: NKG2A on rhesus monkey (Macaca mulatta) NK cells (rhesus monkey (Macaca mulatta)) (UniProt Q9MZJ3); test: flow cytometry on NK cells
[2] = biological target: NKG2A on cynomolgus monkey NK cells (cynomolgus monkey) (UniProt Q68VD2); test: flow cytometry on cynomolgus NK cells (FIG. 4)
[3] = biological target: NKG2A on rhesus monkey (Macaca mulatta) NK cells (rhesus monkey (Macaca mulatta)) (UniProt Q9MZJ3); test: flow cytometry, whole blood NK cells, PE-GaM
[4] = biological target: NKG2A on cynomolgus monkey NK cells (cynomolgus monkey) (UniProt Q68VD2); test: flow cytometry, cynomolgus bulk NK cells, mAb 1 ug/ml, PE-GaM
[5] = biological target: NKG2A on cynomolgus monkey NK cells (cynomolgus monkey) (UniProt Q68VD2); test: flow cytometry on NK cells, PE-GaM

- binding [1]: binds
- binding [2]: binds
- binding [3]: binds
- binding [4]: binds
- binding [5]: binds
B1: Z270 anti-NKG2A monoclonal antibody (antibody, V domains shown)
VH: QVQLQQPGAELVRPGASVKLSCKASGYTFTSYWMNWVKQRPEQGLQWIGRIDPYDSETHYSQKFKDKAILTVDKSSSTAYMRLSSLTSEDSAVYYCARGGYDFDVGTLYWFFDVWGAGTTVTVS
VL: DIQMTQSPASLSASVGETVTITCRASENIYSYLAWYQQKQGKSPQFLVYNAKTLAEGVPSRFSGSGSGTQFSLKINSLQPEDFGSYYCQHHYGTPRTFGGGTKLEIK
